Measurements reported in patent US6881557.
These are yes or no findings as the source states them, for the method shown. Some results given as binding are weak or reduced against the parent protein; the word gives no strength.

Chains of the proteins cited; added tags and fusions are not shown. Residues count along the entry.
UniProt P10747, residues 19-152: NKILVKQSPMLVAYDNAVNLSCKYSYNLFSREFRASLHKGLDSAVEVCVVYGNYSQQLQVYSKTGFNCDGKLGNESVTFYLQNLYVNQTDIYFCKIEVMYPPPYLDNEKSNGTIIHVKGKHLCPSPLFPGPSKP

Target: CD28Ig (human) (UniProt P10747)
Experiment: ELISA on CD28Ig-coated plates, detected with anti-human kappa immunoconjugate

binding: binds
B1: humanized anti-human CD28 (Hu.9.3) Fab fragment (Fab, V domains shown)
VH: EVQLVQSGGGLVQPGGSLRLSCAGSGFTFSDYGVHWVRQAPGKGLEWVSAIWAGGGTNYASSVMGRFTISRDNAKNSLYLQMNSLRAEDMAVYYCARDKGYSYYYSMDYWGQGTLVTVSS
VL: DIVMTQSPDSLAVSLGERATINCRASESVEYYVTSLMAWYQQKPGQPPKLLIYAASNVESGVPDRFSGSGSGTNFSLTISSLQAEDVAVYYCQQSRKVPYTFGQGTKLEIKR
